These are yes or no findings as the source states them, for the method shown. In cells and extracts the contact can be indirect. Here binding means that the protein was enriched with, or labelled near, the bait; the list need not be complete.
What was measured:
[1] = target: T1, Synechocystis sp. PCC 6803 GCS P-protein (glycine decarboxylase), recombinant (Synechocystis sp. PCC 6803) (UniProt P74416); experiment: affinity purification with mass spectrometry
T1 sequence: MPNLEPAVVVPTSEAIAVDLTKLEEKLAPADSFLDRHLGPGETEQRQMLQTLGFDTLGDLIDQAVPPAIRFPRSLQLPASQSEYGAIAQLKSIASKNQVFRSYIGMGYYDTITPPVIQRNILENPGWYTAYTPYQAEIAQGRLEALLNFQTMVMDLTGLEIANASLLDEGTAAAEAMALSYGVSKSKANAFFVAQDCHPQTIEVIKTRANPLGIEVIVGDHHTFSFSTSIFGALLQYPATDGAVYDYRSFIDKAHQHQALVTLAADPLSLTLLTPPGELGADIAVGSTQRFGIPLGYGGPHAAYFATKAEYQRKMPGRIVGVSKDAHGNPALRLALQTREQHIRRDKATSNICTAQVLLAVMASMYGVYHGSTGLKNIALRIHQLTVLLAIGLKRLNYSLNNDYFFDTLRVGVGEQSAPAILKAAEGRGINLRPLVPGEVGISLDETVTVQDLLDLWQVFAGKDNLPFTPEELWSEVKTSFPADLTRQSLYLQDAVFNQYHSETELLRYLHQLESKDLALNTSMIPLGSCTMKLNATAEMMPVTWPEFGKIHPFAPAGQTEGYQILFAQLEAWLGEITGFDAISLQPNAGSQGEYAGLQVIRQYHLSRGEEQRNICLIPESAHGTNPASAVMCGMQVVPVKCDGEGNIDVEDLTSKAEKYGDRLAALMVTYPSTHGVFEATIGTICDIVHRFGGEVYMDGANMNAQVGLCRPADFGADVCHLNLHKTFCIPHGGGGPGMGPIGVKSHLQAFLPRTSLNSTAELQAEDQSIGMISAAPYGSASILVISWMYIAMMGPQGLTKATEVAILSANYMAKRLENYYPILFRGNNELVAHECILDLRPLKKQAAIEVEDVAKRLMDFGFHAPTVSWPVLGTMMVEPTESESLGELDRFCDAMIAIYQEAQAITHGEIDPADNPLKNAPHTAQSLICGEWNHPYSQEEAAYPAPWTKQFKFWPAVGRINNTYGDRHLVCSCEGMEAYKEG

[2] = target: T2, Synechocystis sp. PCC 6803 GCS L-protein (dihydrolipoamide dehydrogenase), recombinant (Synechocystis sp. PCC 6803) (UniProt P72740); experiment: affinity purification with mass spectrometry
T2 sequence: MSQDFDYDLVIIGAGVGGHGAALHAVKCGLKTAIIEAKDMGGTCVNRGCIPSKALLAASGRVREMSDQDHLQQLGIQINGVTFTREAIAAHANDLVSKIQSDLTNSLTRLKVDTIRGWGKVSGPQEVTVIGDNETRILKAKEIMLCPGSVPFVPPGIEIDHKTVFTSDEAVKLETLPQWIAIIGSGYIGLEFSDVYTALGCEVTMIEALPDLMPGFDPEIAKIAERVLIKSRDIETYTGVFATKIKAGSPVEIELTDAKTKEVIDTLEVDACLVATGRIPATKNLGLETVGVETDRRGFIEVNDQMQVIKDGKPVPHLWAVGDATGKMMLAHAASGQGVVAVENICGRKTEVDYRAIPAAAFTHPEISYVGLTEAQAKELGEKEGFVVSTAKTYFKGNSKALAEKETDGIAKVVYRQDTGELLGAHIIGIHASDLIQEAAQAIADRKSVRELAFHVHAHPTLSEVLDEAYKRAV

B1: Synechocystis H-protein, endogenous in Synechocystis lysate (protein, UniProt P73560 1-132)
chain: MELEHPDDLYYLDSHEYVRFDGETATIGLSAFAVDELGDIVFVELPEEGDKVEFEQSMGAVESVKAASDLYSPVTGTVIEKNSALEDQPELLNQDPYGEEGWLIKVRLDDVEDAKEGLMAAGDYRATLETGD
In the case of B1, the binding [1] is reported as “binds” and the binding [2] is reported as “binds”.

Reference: publication doi:10.1101/2020.03.16.993188 (bioRxiv, 2020)
